These are yes or no findings as the source states them, for the method shown. Binding seen in cells or lysates may run through a third protein. Some entries that bind do so weakly or less than the wild type.
Legend:
[1] = target: heterochromatin protein 1γ (HP1γ) (human (endogenous in 2BS)) (UniProt Q13185); assay: co-IP; nuclear extracts of Ras-induced senescent 2BS cells; immunoprecipitation with anti-PIM-1 or anti-HP1γ antibody, then western blot; endogenous proteins
[2] = target: PIM-1 (human (endogenous in 2BS)) (UniProt P11309); assay: as above

Amino acid sequences for entries named in this document (tags omitted).
UniProt Q13185: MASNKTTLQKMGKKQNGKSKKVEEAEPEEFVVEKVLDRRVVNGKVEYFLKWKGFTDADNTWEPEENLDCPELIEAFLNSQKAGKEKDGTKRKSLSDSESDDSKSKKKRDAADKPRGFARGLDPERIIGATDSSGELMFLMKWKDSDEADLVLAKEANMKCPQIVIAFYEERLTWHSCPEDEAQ
UniProt P11309: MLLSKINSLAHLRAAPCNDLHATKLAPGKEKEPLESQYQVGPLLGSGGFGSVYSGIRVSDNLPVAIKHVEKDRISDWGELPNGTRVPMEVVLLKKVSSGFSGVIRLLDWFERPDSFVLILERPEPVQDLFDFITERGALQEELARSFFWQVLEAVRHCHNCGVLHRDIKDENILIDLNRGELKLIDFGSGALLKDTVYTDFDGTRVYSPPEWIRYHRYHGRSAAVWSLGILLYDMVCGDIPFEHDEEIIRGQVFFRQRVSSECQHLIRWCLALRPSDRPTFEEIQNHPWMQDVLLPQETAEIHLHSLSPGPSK

| binding [1] | binding [2] | Substance |
| --- | --- | --- |
| binds |  | PIM-1 (from UniProt P11309 1-313) (enzyme) |
|  | binds | heterochromatin protein 1γ (HP1γ) (from UniProt Q13185 1-183) |

— paper PMC4331745
